Measurements from paper PMC11900807, “Accelerating Ligand Discovery for Insect Odorant Receptors” (International Journal of Biological Sciences, 2025).

Assays:
SlitOR31 = system: T1, SlitOR31; assay: single-sensillum recording of Drosophila ab3A neurons, dose-response; format: cell-based, Spodoptera littoralis; conditions: agonist; odorant puff, 500 ms; doses 1 ng to 100 µg; n = 7
T1 construct: gene OR31; full-length UAS-SlitOR31 transgene in Drosophila melanogaster ab3A olfactory neurons in place of OR22a (Or22ab-GAL4); complex with endogenous Drosophila Orco; with Odorant receptor coreceptor (Drosophila melanogaster, endogenous in ab3A neurons)

SlitOR25 = system: T2, SlitOR25; assay: as above; format: cell-based, Spodoptera littoralis; conditions: agonist; odorant puff, 500 ms; doses 1 ng to 100 µg; n = 7
T2 construct: gene OR25; full-length UAS-SlitOR25 transgene in Drosophila melanogaster ab3A olfactory neurons in place of OR22a (Or22ab-GAL4); complex with endogenous Drosophila Orco; with Odorant receptor coreceptor (Drosophila melanogaster, endogenous in ab3A neurons)

Compound | lowest dose with significant activation (SlitOR31) [µg on filter paper] | lowest dose with significant activation (SlitOR25) [µg on filter paper]
CCCc1ccc(O)c(OC)c1 [compound 23, 2-methoxy-4-propylphenol] | 10 | 
O=C(O)CCc1ccc(O)c(O)c1 [compound 10, 3-(3,4-dihydroxyphenyl)propanoic acid] |  | 100
C=CCc1ccc(O)c(OC)c1 [eugenol] | 1 | 
O=COCc1ccccc1 [compound 16, benzyl formate] |  | 10

Where a name gives a salt, the structure may show the parent alone.
